# The other results are listed elsewhere or left out. Further columns of the screen follow, without active or inactive calls. The list favours compounds with an active or inconclusive main result. The note in brackets gives the kind of curve behind each potency; many fits are weak.
# Assay: qHTS Assay for Modulators of Lamin A Splicing
# Conditions: HeLa LMNA splicing GFP/RFP minigene ratio, 48 h
# In short: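 S3 HeLa stable clones carrying a lamin A-EGFP splicing minigene plus DsRed2 were seeded at 600 cells/well in Opti-MEM with 2% FBS, pin-dosed and incubated 48 h at 37°C. Acumen cytometry (488 nm) gave the GFP/RFP total-intensity ratio.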
# [1] = measured here: RFP viability control channel
# [2] = measured here: GFP splicing reporter channel
SMILES,AC50 [1],AC50 [2]
COc1cc(NC(=O)CCc2c(C)nn(-c3ccc(N4CCOCC4)nn3)c2C)cc(OC)c1OC,"4.47 µM [falling, full curve, poor fit]",
COc1ccc(NC(=S)N(CCc2c(C)[nH]c3ccccc23)Cc2ccco2)cc1,"12.6 µM [rising, partial curve]",
Cc1cc(/C=C(\C#N)C(=O)Nc2ccccc2)c(C)n1-c1cccnc1,"14.1 µM [rising, partial curve]",
CCC(C)NC(=O)CSc1nc2cc3c(cc2c(=O)n1CCCC(=O)NCCc1ccc(OC)c(OC)c1)OCO3 (stereo not drawn),"0.447 µM [falling, single point]",
Cc1ccccc1CN(CC(=O)Nc1cccc([N+](=O)[O-])c1)S(=O)(=O)c1ccc(Cl)cc1,"35.5 µM [rising, single point]",
COc1ccc(F)cc1C(=O)C1CCCN(Cc2cccn2-c2cccnc2)C1 (stereo not drawn),"35.5 µM [falling, single point]",
CC(=O)OCC1=C(C(=O)O)N2C(=O)[C@@H](NC(=O)CSc3ccncc3)[C@H]2SC1,"5.62 µM [falling, partial curve, poor fit]","0.0631 µM [rising, full curve, poor fit]"
Cc1cccc(C(=O)CC(=O)c2cc(Cl)ccc2O)c1,"10 µM [rising, partial curve]",
Cc1ccc(-n2c(SCC(=O)Nc3ncc(Cl)cc3Cl)nc3ccccc32)cc1,"0.891 µM [rising, full curve]",
Clc1ccc(OCCN2CCCCC2)cc1Cl,,"0.1 µM [rising, full curve, poor fit]"
O=C(Nc1cccs1)Nc1c(F)c(F)cc(F)c1F,"20 µM [rising, single point]",
CCc1ccc(CNC(=O)c2c3c(nc4ccccc24)C(=O)N(C2CCCCC2)C3)cc1,,"25.1 µM [falling, partial curve]"
O=C(Oc1ccc2c(c1)OCO2)C12CC3CC(CC(C3)C1)C2,"31.6 µM [rising, single point]",
Cc1nc(NCC2CCCO2)c2nnn(Cc3ccccc3Cl)c2n1 (stereo not drawn),"35.5 µM [rising, single point]","35.5 µM [rising, single point]"
CN1C(=O)/C(=C/c2cn(CC(=O)NCc3ccco3)c3ccccc23)NC1=S,"35.5 µM [falling, single point]","35.5 µM [falling, single point]"
Cc1cc(N2CCN(C)CC2)nc2ccc(NC(=S)N3CCOCC3)cc12,"7.94 µM [falling, partial curve]","12.6 µM [falling, partial curve, poor fit]"
C=CCOC(=O)c1[nH]c2c(c1C)C(=O)CC(c1cc(OC)c(OC)c(OC)c1)C2 (stereo not drawn),"3.55 µM [rising, full curve]",
Cc1ccc(Cn2c(CN3CCC(C(=O)NCc4ccccc4C)CC3)cc3ccccc32)cc1,"0.0708 µM [falling, full curve]","2.51 µM [falling, full curve, poor fit]"
CC1=Nc2ccc(Br)cc2C(c2ccccc2)N1CC(=O)NN (stereo not drawn),"2.51 µM [falling, partial curve, poor fit]",
COC(=O)c1ccc(NC(=O)CCS(=O)(=O)c2ccc(Br)s2)cc1,"8.91 µM [rising, partial curve, poor fit]","12.6 µM [rising, partial curve]"
Cc1nc(N2CCCC2)ncc1C(=O)NCc1cccc(Cl)c1,,"8.91 µM [rising, partial curve]"
O=C(Nc1ccccc1)/C(=C/c1ccccc1)NC(=O)c1ccco1,"12.6 µM [rising, partial curve]","35.5 µM [rising, partial curve, poor fit]"
COc1ccccc1N1CCN(C(=O)Cn2c(=O)n3nc(-c4ccc(C)cc4)nc3c3ccccc32)CC1,"6.31 µM [rising, single point]","0.0794 µM [rising, partial curve, poor fit]"
COc1cc(/C=C/C(=O)OCC(=O)NCc2cccs2)ccc1OCC#N,"0.00316 µM [falling, full curve, poor fit]",
CCCn1c(=O)c2ccccc2n2c(SCCOc3ccc(OC)cc3)nnc12,"20 µM [rising, single point]",
CCc1ccc(NC(=O)CSc2nc3ccccc3nc2Cc2ccc(C)cc2)cc1,"31.6 µM [falling, single point]",
CCc1ccc2c(c1)C(c1ccc([N+](=O)[O-])cc1)=NNC(c1ccc(Br)cc1)=N2,"0.0178 µM [falling, single point]","0.0891 µM [falling, single point]"

SMILES,AC50 [1],AC50 [2]
CCOC(=O)Cn1cnc2c(nnn2-c2ccc(C)cc2)c1=O,"1.58 µM [falling, partial curve, poor fit]",
COc1ccc(-c2nnc(N(C)C(=O)c3cccnc3)s2)cc1,,"4.47 µM [rising, full curve, poor fit]"
CCCCCCCCCCCCCCC(C(=O)OC)C(O)(CC(=O)OC)C(=O)OC (stereo not drawn),"31.6 µM [falling, single point]","28.2 µM [falling, single point]"
Cc1ccc2[nH]c3c(=O)n(CC(=O)NCc4ccco4)ncc3c2c1,,"35.5 µM [rising, single point]"
C[C@H]1Cc2c(COc3ccccc3)nc3c(c2CO1)CN(S(=O)(=O)c1ccc2c(c1)OCCN2C)CC3,"0.002 µM [falling, full curve, poor fit]",
CCN(C(=S)Nc1ccc(C(C)=O)cc1)C1CCCCC1,"5.01 µM [falling, partial curve]","6.31 µM [falling, partial curve]"
Cc1ccc(OCCSc2nnc(-c3cccs3)o2)cc1Cl,"0.00316 µM [falling, full curve, poor fit]",
COC(=O)NC1(C(F)(F)F)C(=O)Nc2c1c(=O)n(C)c(=O)n2C (stereo not drawn),,"0.398 µM [falling, full curve]"
COc1ccc2[nH]cc(CCNc3ccnc(-c4ccc5c(c4)OCO5)n3)c2c1,"11.2 µM [falling, single point]","7.94 µM [falling, partial curve]"
CCCCNS(=O)(=O)c1ccc2nc(SCC(=O)Nc3ccccc3)[nH]c2c1,"35.5 µM [rising, partial curve]","17.8 µM [rising, partial curve]"
Cc1ccc(Nc2ncnc3c2cnn3C)cc1,,"20 µM [falling, partial curve, poor fit]"
CCN(CC)S(=O)(=O)c1cc(NC(=O)C(C)N2CCN(Cc3ccc4c(c3)OCO4)CC2)ccc1C (stereo not drawn),"17.8 µM [rising, partial curve]","5.62 µM [rising, partial curve]"
Cc1cc(C)cc(NC(=O)CC2NCCNC2=O)c1 (stereo not drawn),"0.112 µM [falling, full curve, poor fit]",
CN(C(=O)CSc1nc2ccccc2n1Cc1ccccc1C#N)c1ccccc1,"11.2 µM [rising, partial curve, poor fit]","35.5 µM [rising, single point]"
CCP(=O)(CC)C(C)(C)CP(=O)(c1ccccc1)c1ccccc1,,"0.0355 µM [rising, full curve, poor fit]"
COc1ccc(CCNC(=O)c2ccc(N(C)S(=O)(=O)c3ccc(C)cc3)cc2)cc1,"0.0112 µM [falling, full curve, poor fit]","0.02 µM [falling, full curve, poor fit]"
Cn1c(=O)c2c(c3ccccc31)OC(C)(C)CC2,"22.4 µM [rising, single point]","15.8 µM [rising, partial curve, poor fit]"
c1ccc(-c2csc(Nc3ccc4c(c3)OCCO4)n2)cc1,"15.8 µM [rising, single point]","12.6 µM [rising, single point]"
Cc1ccc(S(=O)(=O)c2c(C)nn(C(C)(C)C)c2OC(=O)C(C)(C)C)cc1,,"35.5 µM [rising, single point]"
CCOC(=O)c1ccc(-c2ccc(/C=C(\C#N)C(=O)Nc3ccc(C)cc3)o2)cc1,"35.5 µM [falling, single point]",
Cc1ccc(S(=O)(=O)C(CNS(=O)(=O)c2ccc(F)c(C(F)(F)F)c2)c2ccco2)cc1 (stereo not drawn),,"10 µM [falling, partial curve]"
CCC(C(=O)NC1CCCCC1)n1c(SCc2cccc(F)c2)nc2ccncc21 (stereo not drawn),"1.41 µM [rising, full curve, poor fit]",
O=C(NNc1c2ccccc2nc2ccccc12)c1cccc(O)c1,"12.6 µM [rising, partial curve, poor fit]",
O=C(Cn1c(O)c(/C=C2\C=Nc3ccc(Br)cc32)sc1=O)N1CCCC1,,"28.2 µM [rising, single point]"
Cc1ccc(SCc2[nH]nc3c2C2(C(=O)Nc4ccc(F)cc42)C(C#N)=C(N)O3)cc1 (stereo not drawn),"17.8 µM [rising, single point]",
O=S(=O)(c1ccc(Br)s1)N1CCN(c2ccccc2)CC1,"11.2 µM [rising, single point]",
COc1ccc(COC(=O)N/N=C(\C)CC(=O)Nc2ccc(Cl)cc2)cc1,"3.16 µM [falling, partial curve]","5.01 µM [falling, partial curve, poor fit]"

# A second format for some results above:
SMILES	AC50 [1]	AC50 [2]
COc1ccc(-c2nnc(N(C)C(=O)c3cccnc3)s2)cc1		4.47 µM [rising, full curve, poor fit]
CCCCCCCCCCCCCCC(C(=O)OC)C(O)(CC(=O)OC)C(=O)OC (stereo not drawn)	31.6 µM [falling, single point]	28.2 µM [falling, single point]
